Laboratory results published in publication PMC5223361.
Results are given in words; binding and its absence hold for the method and conditions named. Binding seen in cells or lysates may run through a third protein. Some results given as binding are weak or reduced against the parent protein; the word gives no strength. One block for each substance: values may come before it.

The chains behind the UniProt entries cited, without tags or fusion partners.
UniProt Q969H0: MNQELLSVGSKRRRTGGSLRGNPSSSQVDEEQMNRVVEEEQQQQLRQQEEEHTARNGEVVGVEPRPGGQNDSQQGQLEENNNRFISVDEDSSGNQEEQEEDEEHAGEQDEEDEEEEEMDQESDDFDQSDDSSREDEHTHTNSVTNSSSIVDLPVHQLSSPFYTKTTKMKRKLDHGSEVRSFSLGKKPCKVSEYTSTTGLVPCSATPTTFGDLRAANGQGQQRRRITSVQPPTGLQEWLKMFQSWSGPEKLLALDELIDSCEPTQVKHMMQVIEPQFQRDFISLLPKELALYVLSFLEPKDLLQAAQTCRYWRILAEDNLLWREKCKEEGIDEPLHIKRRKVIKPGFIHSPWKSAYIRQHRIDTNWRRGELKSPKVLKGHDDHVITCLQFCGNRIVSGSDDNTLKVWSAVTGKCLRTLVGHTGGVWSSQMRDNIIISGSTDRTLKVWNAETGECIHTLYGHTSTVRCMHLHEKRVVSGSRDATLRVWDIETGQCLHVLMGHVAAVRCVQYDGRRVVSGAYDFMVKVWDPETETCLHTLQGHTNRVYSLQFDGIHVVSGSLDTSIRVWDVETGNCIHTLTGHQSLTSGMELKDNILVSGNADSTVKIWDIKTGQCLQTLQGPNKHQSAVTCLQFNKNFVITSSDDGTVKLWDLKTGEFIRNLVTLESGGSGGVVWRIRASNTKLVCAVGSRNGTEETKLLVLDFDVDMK
UniProt P40763: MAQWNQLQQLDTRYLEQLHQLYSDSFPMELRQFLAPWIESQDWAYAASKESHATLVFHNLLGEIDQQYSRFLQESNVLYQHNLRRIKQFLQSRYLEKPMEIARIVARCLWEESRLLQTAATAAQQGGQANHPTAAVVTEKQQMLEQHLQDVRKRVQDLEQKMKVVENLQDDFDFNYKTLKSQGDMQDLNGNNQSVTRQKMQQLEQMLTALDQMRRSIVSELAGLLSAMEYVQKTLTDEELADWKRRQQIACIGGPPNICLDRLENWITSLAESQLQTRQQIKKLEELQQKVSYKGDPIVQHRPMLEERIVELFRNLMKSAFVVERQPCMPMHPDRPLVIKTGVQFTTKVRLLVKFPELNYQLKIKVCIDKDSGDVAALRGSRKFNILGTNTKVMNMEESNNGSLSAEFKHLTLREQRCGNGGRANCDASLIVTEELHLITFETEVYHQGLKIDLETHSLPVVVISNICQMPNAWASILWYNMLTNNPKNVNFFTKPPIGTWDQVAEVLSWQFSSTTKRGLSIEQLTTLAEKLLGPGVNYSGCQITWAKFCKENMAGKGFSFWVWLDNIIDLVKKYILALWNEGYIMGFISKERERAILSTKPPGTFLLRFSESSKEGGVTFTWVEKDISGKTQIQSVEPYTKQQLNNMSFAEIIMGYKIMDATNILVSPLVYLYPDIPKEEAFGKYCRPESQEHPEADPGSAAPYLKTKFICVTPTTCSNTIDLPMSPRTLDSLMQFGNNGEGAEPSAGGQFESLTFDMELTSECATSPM

Assays:
[1] = biological target: Myc-Fbw7 (human) (UniProt Q969H0); experiment: co-IP; HEK293T cells co-transfected with Myc-Fbw7 and Flag-Stat3; RIPA lysates precipitated with anti-Myc or anti-Flag antibody on protein A/G beads overnight; western blot
[2] = biological target: Flag-Stat3 (human) (UniProt P40763); experiment: as above
[3] = biological target: endogenous Stat3 (HEK293T cells) (human (endogenous in HEK293T)) (UniProt P40763); experiment: co-IP; endogenous proteins; HEK293T lysates precipitated with anti-Fbw7, anti-Stat3 or anti-pStat3^Tyr705 antibody; IgG as control; western blot (Additional file 5)
[4] = biological target: endogenous pStat3^Tyr705 (HEK293T cells) (human (endogenous in HEK293T)) (UniProt P40763); experiment: as above
[5] = biological target: endogenous Stat3 (SU-DHL-2 cells) (human (endogenous in SU-DHL-2)) (UniProt P40763); experiment: co-IP; endogenous proteins; SU-DHL-2 RIPA lysates precipitated with anti-Fbw7, anti-Stat3 or anti-pStat3^Tyr705 antibody on protein A/G beads overnight; IgG as control; western blot
[6] = biological target: endogenous pStat3^Tyr705 (SU-DHL-2 cells) (human (endogenous in SU-DHL-2)) (UniProt P40763); experiment: as above
[7] = biological target: endogenous Fbw7 (HEK293T cells) (human (endogenous in HEK293T)) (UniProt Q969H0); experiment: co-IP; endogenous proteins; HEK293T lysates precipitated with anti-Fbw7, anti-Stat3 or anti-pStat3^Tyr705 antibody; IgG as control; western blot (Additional file 5)
[8] = biological target: endogenous Fbw7 (SU-DHL-2 cells) (human (endogenous in SU-DHL-2)) (UniProt Q969H0); experiment: co-IP; endogenous proteins; SU-DHL-2 RIPA lysates precipitated with anti-Fbw7, anti-Stat3 or anti-pStat3^Tyr705 antibody on protein A/G beads overnight; IgG as control; western blot

binding [1]: binds
Substance: Flag-Stat3 (from UniProt P40763 1-770)

binding [2]: binds
Substance: Myc-Fbw7 (from UniProt Q969H0 1-707)

binding [8]: binds
Substance: endogenous Stat3 (SU-DHL-2 cells) (from UniProt P40763 1-770)

binding [7]: binds
Substance: endogenous pStat3^Tyr705 (HEK293T cells) (from UniProt P40763 1-770)

binding [8]: binds
Substance: endogenous pStat3^Tyr705 (SU-DHL-2 cells) (from UniProt P40763 1-770)

Further lines, the substance ahead of its results:

Substance: endogenous Fbw7 (HEK293T cells) (from UniProt Q969H0 1-707)
binding [3]: binds
binding [4]: binds

Substance: endogenous Fbw7 (SU-DHL-2 cells) (from UniProt Q969H0 1-707)
binding [5]: binds
binding [6]: binds

Substance: endogenous Stat3 (HEK293T cells) (from UniProt P40763 1-770)
binding [7]: binds
